Reference: publication PMC5296650
Results are given in words; binding and its absence hold for the method and conditions named.

By UniProt entry, the sequences of proteins in these tests, tags left out. Where a name states a change or a piece, a line headed by the entry shows the natural chain unless it says otherwise.
UniProt P32120: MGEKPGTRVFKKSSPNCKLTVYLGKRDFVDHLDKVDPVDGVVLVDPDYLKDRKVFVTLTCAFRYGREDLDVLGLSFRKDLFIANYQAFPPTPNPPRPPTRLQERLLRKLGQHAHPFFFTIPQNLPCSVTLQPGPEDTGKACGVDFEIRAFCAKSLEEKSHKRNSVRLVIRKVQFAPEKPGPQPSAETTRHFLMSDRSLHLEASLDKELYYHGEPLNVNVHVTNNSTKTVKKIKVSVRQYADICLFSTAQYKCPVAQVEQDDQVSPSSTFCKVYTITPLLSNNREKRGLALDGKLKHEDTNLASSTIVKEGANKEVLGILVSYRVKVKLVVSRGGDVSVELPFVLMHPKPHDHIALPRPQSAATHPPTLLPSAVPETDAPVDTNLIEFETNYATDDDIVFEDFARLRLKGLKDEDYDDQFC
UniProt Q13557: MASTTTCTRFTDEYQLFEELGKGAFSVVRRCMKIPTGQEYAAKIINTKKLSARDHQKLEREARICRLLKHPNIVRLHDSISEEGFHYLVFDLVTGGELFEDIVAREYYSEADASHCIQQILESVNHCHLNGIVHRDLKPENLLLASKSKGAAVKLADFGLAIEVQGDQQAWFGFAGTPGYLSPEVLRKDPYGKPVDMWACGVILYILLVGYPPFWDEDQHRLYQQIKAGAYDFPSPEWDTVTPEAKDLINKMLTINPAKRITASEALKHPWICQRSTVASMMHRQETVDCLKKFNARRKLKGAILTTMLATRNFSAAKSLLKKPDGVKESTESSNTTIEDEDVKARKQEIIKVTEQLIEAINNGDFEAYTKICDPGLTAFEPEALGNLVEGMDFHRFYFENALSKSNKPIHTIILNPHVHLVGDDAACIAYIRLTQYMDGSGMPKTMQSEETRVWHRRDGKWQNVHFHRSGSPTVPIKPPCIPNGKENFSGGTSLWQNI

Target: MBP-barr2 (barr2 fused to the C-terminus of maltose-binding protein) (UniProt P32120)
Assay: pull-down; purified MBP-barr2 (5 μg, ∼0.11 μM) with purified JNK3α2 or CAMKIIδ (5 μg, ∼0.18 μM) and amylose resin in 20 mM Tris-HCl pH 8, 137 mM NaCl, 1% Nonidet P-40, 2 mM EDTA, 3 h at 4 °C; eluted with 50 mM maltose; SDS-PAGE and Western blot; both purified

In the case of “purified CAMKIIδ (from UniProt Q13557 1-499) (enzyme)”, the binding is reported as “no binding (tested: MBP-barr2 ∼0.11 μM; CAMKII ∼0.18 μM)”.
